Data taken from US20160007606A1, “MICROBIOCIDAL PYRAZOLE DERIVATIVES” (SYNGENTA PARTICIPATIONS AG, priority 2012, published 2016).
Some entries share one result that the patent states for a list of compounds.

How the values were obtained:
Phytophthora infestans = type: in vivo; details: 200 ppm; tomato leaf disks, inoculated 1 day after application; compared to untreated control leaf disks
Plasmopara viticola = Plasmopara viticola / grape / leaf disc preventative (grape downy mildew); type: in vivo; details: 200 ppm; grape vine leaf disks, inoculated 1 day after application; compared to untreated control leaf disks

COC(=O)C1CN(c2nc(C3=NOC(c4c(F)cccc4F)C3)cs2)CCN1C(=O)Cn1nc(C(F)(F)F)cc1C (centres unmarked) [I.az.038, 4-{4-[5-(2,6-difluoro-phenyl)-4,5-dihydro-isoxazol-3-yl]-thiazol-2-yl}-1-[2-(5-methyl-3-trifluoromethyl-pyrazol-1-yl)-acetyl]-piperazine-2-carboxylic acid methyl ester]
disease control (Phytophthora infestans): at least 80%
disease control (Plasmopara viticola): at least 80%
